Measurements from patent publication US8618169B2, “Derivatives of N-phenylanthranilic acid and 2-benzimidazolone as potassium channel and/or neuron activity modulators” (Ramot at Tel-Aviv University Ltd., priority 2002, dated 2013).

The molecules below were run on COX (Cyclooxygenase) (assay: COX activity assay in C-26 cells (PGE2 radioimmunoassay)).
Type: cell-based
Protocol: C-26 cells were plated on 24-well plates using RPMI medium. Different concentrations of the tested compound were added thereto and the cells were incubated for 30 minutes at 37° C. 30 μM exogenic arachidonic acid was then added and incubation was continued for 20 minutes (37° C.), so as to allow the cells to synthesize PGE2. Indomethacin was added thereafter (10 μM), to stop and completely block the activity. Then, the upper solution was removed into clean 24-wells. To the remained cells 100 μl NaOH (1M) were added to induce cytolysis, and the cells were left for later protein measurement. The solution removed to the new 24-well was used for a radioimmunoassay. The COX activity was estimated by calculating the ng PGE2/mg protein parameter.
For `Cc1c(Cl)cccc1Nc1ccccc1C(=O)NCCOCCO` [Compound 3], the Hillslope was −0.6206. In the case of `Cc1cccc(Nc2ccccc2C(=O)NCCOCCO)c1C` [Compound 5], the Hillslope is reported as −0.4281. `O=C(Cc1ccccc1Nc1c(Cl)cccc1Cl)OCCOCCO` [Compound 7] showed a Hillslope of −2.873.
